Reference: PubChem BioAssay
Inconclusive results, whose numbers are uncertain, are shown with a selection of clear calls. Calls of active or inactive are those of the source.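 How the source made its calls: active means inhibition over a set limit, the all-compound mean plus 3 SD, in both replicate runs; inconclusive means over that limit in just one replicate run; inactive means at or under that limit in both runs.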

Assay: RAM pathway blockade in budding yeast – dse1pr::URA3 reporter, 5-FOA selection, pilot screen (AID 869);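 further: 0% = DMSO wells with no growth and 100% = 10 µM 1-NA-PP1 with full growth; RAM network block rescues cells from 5-FOA so hits raise OD615 growth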
Conditions: S. cerevisiae dse1pr::URA3 5-FOA growth, OD615, 2 d; at 10 µM; stronger effect = higher value; strain carries analog-sensitive mutant Cbk1 kinase

| Structure (SMILES) | inhibition |
| --- | --- |
| COc1ccccc1OCC(O)CN1C(=O)NC(C)(C)C1=O (stereo not given) | inconclusive: 4.42% |
| CN1C(=O)CSc2ccc(C(=O)O)cc21 | inconclusive: 3.87% |
| COc1ccccc1-c1nnc(SCC(=O)NC2CCCCC2)o1 | inactive: -0.42% |
| COc1cc(C(=O)NCCc2cn3ccc(C)cc3n2)cc(OC)c1OC | inconclusive: 4.89% |
| CCOc1ccc(NC(=O)CSc2nnc(Cn3c(=O)sc4ccccc43)n2C)cc1 | inactive: 0.83% |
| C=CCOC(=O)c1sc(NC(=O)c2ccco2)nc1C | inconclusive: 4.08% |
| CCOC(=O)CNc1nc(C(C)(C)C)nc2c1nnn2Cc1ccccc1Cl | inconclusive: 6.17% |
| Cc1ccc(OCC(=O)Nc2ccc(O)c(-c3nc4ccccc4o3)c2)cc1 | inconclusive: 4.54% |
| Cc1ccc(C)c2[nH]c(=O)c(CCNC(=O)c3cc4ccccc4o3)cc12 | inconclusive: 5.37% |
| CC(=O)C1C(c2ccccc2Cl)NC(=O)NC1(O)C(F)(F)F (stereo not given) | inactive: 1.93% |
| CCOC(=O)N1CCN(c2nc(C)cc(C(F)(F)F)n2)CC1 | inactive: 2.92% |
| CCOc1ccc(-n2c(SCC(N)=O)nc3c([nH]c4ccccc43)c2=O)cc1 | inconclusive: 4.49% |
| CCCNc1nc2c(c(=O)n(C)c(=O)n2C)n1Cc1ccc(F)cc1 | inactive: 0.88% |
| CCOC(=O)c1c(CN2CCCCC2)n(C)c2cc(Br)c(O)c(CN(C)C)c12 | inconclusive: 4.29% |
| Cc1ccc(N(C(=O)c2ccncc2)C2C=CS(=O)(=O)C2)cc1 (stereo not given) | inconclusive: 3.04% |
| COc1ccc(C(=O)c2oc3ccc(Br)cc3c2NC(C)=O)cc1 | inconclusive: 6% |
| C#CCSc1nnc(-c2c[nH]c3ccccc23)n1C | inconclusive: 3.38% |
| Cn1c(C(C#N)/C(=N\S(=O)(=O)c2cccs2)c2ccccc2)nc2ccccc21 (stereo not given) | inconclusive: 5.8% |
| CCC(C)(C(=O)NC1CCCC1)N(CC1CCCO1)C(=O)CNC(=O)c1ccccc1 (stereo not given) | inconclusive: 4.3% |
| CCOc1ccc(N(CC(=O)NC(C)CC)S(=O)(=O)c2c(C)noc2C)cc1 (stereo not given) | inconclusive: 3.63% |

| Structure (SMILES) | inhibition |
| --- | --- |
| COc1ccc(CCn2c(N)c(S(=O)(=O)c3cccs3)c3nc4ccccc4nc32)cc1OC | inconclusive: 5.74% |
| Cc1cc(Nc2ccc(C)c(Br)c2)n2nc(C)nc2n1 | inconclusive: 3.17% |
| Cc1ccc(CN2CCNC(=O)C2CC(=O)O)cc1 (stereo not given) | inconclusive: 3.81% |
| O=c1c2ccccc2nc2c3ccccc3ncn12 | inconclusive: 4.21% |
| CN(C)C(=O)N1CCN(C(=O)c2ccco2)CC1 | inactive: 2.13% |
| CCC(C(=O)N1CCN(c2cccc(Cl)c2)CC1)c1ccccc1 (stereo not given) | inconclusive: 5.13% |
| CCSC(C)CC1C/C(=N/O)c2c(CC)noc2C1 (stereo not given) | inconclusive: 4.75% |
| O=C(NCc1ccccc1Cl)C1CCN(C(=O)c2sccc2-n2cccc2)CC1 | inconclusive: 4.74% |
| CCOC(=O)N1CCC(N2C(=O)c3ccc(C(=O)Nc4ccc(F)cc4F)cc3C2=O)CC1 | inconclusive: 5.56% |
| Cn1c(=O)c2nnn(/N=C(\c3ccccc3)C3CC3)c2n(C)c1=O | inconclusive: 4.27% |
| O=C1CCC(C(=O)NC2(C(=O)NC3CCCCC3)CCCCC2)N1 (stereo not given) | inconclusive: 4.56% |
| O=C(CSc1nc2ccccc2o1)NCc1ccc2c(c1)OCO2 | inconclusive: 6.94% |
| Cc1ccc2oc(-c3ccc(NC(=O)CC(C)C)cc3)nc2c1 | inconclusive: 4.98% |
| CN(CC(=O)N1CCc2ccccc2C1)S(=O)(=O)c1ccc2c(c1)c(=O)n(C)c(=O)n2C | inconclusive: 3.71% |
| Cc1ccc(C2CC(=O)NC(SCCC(C)C)=C2C#N)cc1 (stereo not given) | inconclusive: 4.87% |
| CCOc1ccc(-n2nnc3c(=O)n(CC(=O)N4CCCc5ccccc54)cnc32)cc1 | inconclusive: 4.42% |
| Cc1nnc(NC(=O)CSc2nnc(Cc3cccn3C)n2-c2cccc(C)c2C)s1 | inconclusive: 6.19% |
| c1ccc(-c2nc(CSc3nnnn3-c3ccccc3)cs2)cc1 | inconclusive: 10.8% |
| Cc1cc(C)cc(NC(=O)CSc2nnc(Cn3c(=O)sc4ccccc43)n2C)c1 | inconclusive: 4.65% |
| O=C1c2ccccc2-c2ncnc3c(N4CCOCC4)cc(N4CCOCC4)c1c23 | inactive: -0.74% |

Structural class: the entries above containing a cyano group

| Structure (SMILES) | inhibition |
| --- | --- |
| Cn1c(C(C#N)/C(=N\S(=O)(=O)c2cccs2)c2ccccc2)nc2ccccc21 (stereo not given) | inconclusive: 5.8% |
| Cc1ccc(C2CC(=O)NC(SCCC(C)C)=C2C#N)cc1 (stereo not given) | inconclusive: 4.87% |
